# Experimental data: the supplement of paper PMC8728848
# The list shows a part of the results.
# B1: Epa11 (Candida glabrata) (protein)
# chain: MGSSHHHHHHSSGLVPRGSHMASSNAPNYPVGCSPSVGTQLTPGLSLEVYAYPMDGNNGYCWNATYKDPEFPRSGYLKNKLLGKADGVVGPLNFLAKNKDCSPKVDTLPAGFNFPQPITVTNFTMVLFGYLAPKQSGKYTFKLLADDLLLLNLGATNAFDCCNREATKNNLGEFLAYNLWPNQDKNVTVYLEKGVYYPLRLFFNNRDGGSQLDFSYYFNDSPAPLTDFSGMFFSVPDGAECPARI
# Assays:
# Assay in all cases: glycan array binding signal (z-score within array); higher = stronger binding
# Settings in all cases: glycan notation: IUPAC condensed, linker removed
# [1] = target: Neu5Ac(a2-6)Gal(b1-4)GlcNAc(b1-2)Man(a1-3)[GlcNAc(b1-4)][Neu5Ac(a2-6)Gal(b1-4)GlcNAc(b1-2)Man(a1-6)]Man(b1-4)GlcNAc(b1-4)GlcNAc
# Outline: (§1)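 Glycan array data came from 3228 arrays in the Consortium for Functional Glycomics database, and only arrays with an available protein sequence were kept. Glycan names were put into IUPAC-condensed notation, and columns mapping to the same glycan were averaged. The binding signal is a within-array Z-score, averaged across arrays of one protein sequence run at different concentrations or buffers and across linkers. A negative Z-score can be read as non-binding.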
# [2] = target: Neu5Ac(a2-6)Gal(b1-4)GlcNAc(b1-2)Man(a1-3)[Man(a1-6)]Man(b1-4)GlcNAc(b1-4)GlcNAc
# Outline: as §1
# [3] = target: Neu5Ac(a2-6)Gal(b1-4)GlcNAc(b1-2)Man(a1-3)[Neu5Ac(a2-3)Gal(b1-4)GlcNAc(b1-2)Man(a1-6)]Man(b1-4)GlcNAc(b1-4)GlcNAc
# Outline: as §1
# [4] = target: Neu5Ac(a2-6)Gal(b1-4)GlcNAc(b1-2)Man(a1-3)[Neu5Ac(a2-6)Gal(b1-4)GlcNAc(b1-2)Man(a1-6)]Man(b1-4)GlcNAc(b1-4)GlcNAc
# Outline: as §1
# [5] = target: Neu5Ac(a2-6)Gal(b1-4)GlcNAc(b1-2)Man(a1-3)[Neu5Ac(a2-6)Gal(b1-4)GlcNAc(b1-2)Man(a1-6)]Man(b1-4)GlcNAc(b1-4)[Fuc(a1-6)]GlcNAc
# Outline: as §1
# [6] = target: Neu5Ac(a2-6)Gal(b1-4)GlcNAc(b1-2)Man(a1-6)Man(b1-4)GlcNAc(b1-4)GlcNAc
# Outline: as §1
# [7] = target: Neu5Ac(a2-6)Gal(b1-4)GlcNAc(b1-2)Man(a1-6)[Gal(b1-4)GlcNAc(b1-2)Man(a1-3)]Man(b1-4)GlcNAc(b1-4)GlcNAc
# Outline: as §1
# [8] = target: Neu5Ac(a2-6)Gal(b1-4)GlcNAc(b1-2)Man(a1-6)[GlcNAc(b1-2)Man(a1-3)]Man(b1-4)GlcNAc(b1-4)GlcNAc
# Outline: as §1
# [9] = target: Neu5Ac(a2-6)Gal(b1-4)GlcNAc(b1-2)Man(a1-6)[Man(a1-3)]Man(b1-4)GlcNAc(b1-4)GlcNAc
# Outline: as §1
# [10] = target: Neu5Ac(a2-6)Gal(b1-4)GlcNAc(b1-2)[Neu5Ac(a2-6)Gal(b1-4)GlcNAc(b1-4)]Man(a1-3)[GlcNAc(b1-4)][Neu5Ac(a2-6)Gal(b1-4)GlcNAc(b1-2)[Neu5Ac(a2-6)Gal(b1-4)GlcNAc(b1-6)]Man(a1-6)]Man(b1-4)GlcNAc(b1-4)GlcNAc
# Outline: as §1
# [11] = target: Neu5Ac(a2-6)Gal(b1-4)GlcNAc(b1-2)[Neu5Ac(a2-6)Gal(b1-4)GlcNAc(b1-4)]Man(a1-3)[GlcNAc(b1-4)][Neu5Ac(a2-6)Gal(b1-4)GlcNAc(b1-4)Man(a1-6)]Man(b1-4)GlcNAc(b1-4)GlcNAc
# Outline: as §1
# [12] = target: Neu5Ac(a2-6)Gal(b1-4)GlcNAc(b1-2)[Neu5Ac(a2-6)Gal(b1-4)GlcNAc(b1-6)]Man(a1-6)[Neu5Ac(a2-6)Gal(b1-4)GlcNAc(b1-2)Man(a1-3)][GlcNAc(b1-4)]Man(b1-4)GlcNAc(b1-4)GlcNAc
# Outline: as §1
# [13] = target: Neu5Ac(a2-6)Gal(b1-4)GlcNAc(b1-3)Gal(b1-3)GlcNAc
# Outline: as §1
# [14] = target: Neu5Ac(a2-6)Gal(b1-4)GlcNAc(b1-3)Gal(b1-4)GlcNAc
# Outline: as §1
# [15] = target: Neu5Ac(a2-6)Gal(b1-4)GlcNAc(b1-3)Gal(b1-4)GlcNAc(b1-2)Man(a1-3)[Neu5Ac(a2-6)Gal(b1-4)GlcNAc(b1-3)Gal(b1-4)GlcNAc(b1-2)Man(a1-6)]GalNAc
# Outline: as §1
# [16] = target: Neu5Ac(a2-6)Gal(b1-4)GlcNAc(b1-3)Gal(b1-4)GlcNAc(b1-3)Gal(b1-4)GlcNAc
# Outline: as §1
# [17] = target: Neu5Ac(a2-6)Gal(b1-4)GlcNAc(b1-3)Gal(b1-4)GlcNAc(b1-3)Gal(b1-4)GlcNAc(b1-2)Man(a1-3)[Neu5Ac(a2-6)Gal(b1-4)GlcNAc(b1-3)Gal(b1-4)GlcNAc(b1-3)Gal(b1-4)GlcNAc(b1-2)Man(a1-6)]GalNAc
# Outline: as §1
# [18] = target: Neu5Ac(a2-6)Gal(b1-4)GlcNAc(b1-3)Gal(b1-4)GlcNAc(b1-3)GalNAc
# Outline: as §1
# [19] = target: Neu5Ac(a2-6)Gal(b1-4)GlcNAc(b1-3)Gal(b1-4)GlcNAc(b1-3)[Neu5Ac(a2-6)Gal(b1-4)GlcNAc(b1-3)Gal(b1-4)GlcNAc(b1-6)]GalNAc
# Outline: as §1
# [20] = target: Neu5Ac(a2-6)Gal(b1-4)GlcNAc(b1-3)Gal(b1-4)GlcNAc(b1-6)[Gal(b1-3)]GalNAc
# Outline: as §1
# [21] = target: Neu5Ac(a2-6)Gal(b1-4)GlcNAc(b1-3)Gal(b1-4)[Fuc(a1-3)]GlcNAc(b1-3)Gal(b1-4)[Fuc(a1-3)]GlcNAc
# Outline: as §1
# [22] = target: Neu5Ac(a2-6)Gal(b1-4)GlcNAc(b1-3)GalNAc
# Outline: as §1
# [23] = target: Neu5Ac(a2-6)Gal(b1-4)GlcNAc(b1-3)[Neu5Ac(a2-6)Gal(b1-4)GlcNAc(b1-6)]GalNAc
# Outline: as §1
# [24] = target: Neu5Ac(a2-6)Gal(b1-4)GlcNAc(b1-6)GalNAc
# Outline: as §1
# [25] = target: Neu5Ac(a2-6)Gal(b1-4)GlcNAc(b1-6)[Gal(b1-3)GlcNAc(b1-3)]Gal(b1-4)Glc
# Outline: as §1
# [26] = target: Neu5Ac(a2-6)Gal(b1-4)GlcNAc(b1-6)[Gal(b1-3)]GalNAc
# Outline: as §1
# [27] = target: Neu5Ac(a2-6)Gal(b1-4)GlcNAc6S
# Outline: as §1
# Neu5Ac(a2-6)GalNAc = target: Neu5Ac(a2-6)GalNAc
# Outline: as §1
# [28] = target: Neu5Ac(a2-6)GalNAc(b1-4)GlcNAc
# Outline: as §1
# [29] = target: Neu5Ac(a2-6)GalNAc(b1-4)GlcNAc6S
# Outline: as §1
# [30] = target: Neu5Ac(a2-6)GlcNAc(b1-4)GlcNAc
# Outline: as §1
binder,measurement,setting,value
B1,glycan array binding signal (z-score),[1],-0.77
same,glycan array binding signal (z-score),[2],0.506
same,glycan array binding signal (z-score),[3],0.456
same,glycan array binding signal (z-score),[4],-0.433
same,glycan array binding signal (z-score),[5],0.607
same,glycan array binding signal (z-score),[6],0.488
same,glycan array binding signal (z-score),[7],-0.813
same,glycan array binding signal (z-score),[8],-0.098
same,glycan array binding signal (z-score),[9],0.212
same,glycan array binding signal (z-score),[10],0.252
same,glycan array binding signal (z-score),[11],-0.193
same,glycan array binding signal (z-score),[12],-1.11
same,glycan array binding signal (z-score),[13],-0.149
same,glycan array binding signal (z-score),[14],-0.608
same,glycan array binding signal (z-score),[15],0.871
same,glycan array binding signal (z-score),[16],-0.284
same,glycan array binding signal (z-score),[17],1.56
same,glycan array binding signal (z-score),[18],0.59
same,glycan array binding signal (z-score),[19],1.16
same,glycan array binding signal (z-score),[20],0.182
same,glycan array binding signal (z-score),[21],-0.397
same,glycan array binding signal (z-score),[22],0.37
same,glycan array binding signal (z-score),[23],-0.465
same,glycan array binding signal (z-score),[24],0.037
same,glycan array binding signal (z-score),[25],-0.348
same,glycan array binding signal (z-score),[26],-0.384
same,glycan array binding signal (z-score),[27],-0.281
same,glycan array binding signal (z-score),Neu5Ac(a2-6)GalNAc,-0.369
same,glycan array binding signal (z-score),[28],-0.616
same,glycan array binding signal (z-score),[29],-0.391
same,glycan array binding signal (z-score),[30],0.216

# Looked up one by one from the entries so far:
binder,measurement,setting,value
B1,glycan array binding signal (z-score),[6],0.488
same,glycan array binding signal (z-score),[9],0.212
